# Measurements from publication doi:10.1101/2020.03.02.973859.
# The chains behind the UniProt entries cited, without tags or fusion partners.
# UniProt Q4ACU6: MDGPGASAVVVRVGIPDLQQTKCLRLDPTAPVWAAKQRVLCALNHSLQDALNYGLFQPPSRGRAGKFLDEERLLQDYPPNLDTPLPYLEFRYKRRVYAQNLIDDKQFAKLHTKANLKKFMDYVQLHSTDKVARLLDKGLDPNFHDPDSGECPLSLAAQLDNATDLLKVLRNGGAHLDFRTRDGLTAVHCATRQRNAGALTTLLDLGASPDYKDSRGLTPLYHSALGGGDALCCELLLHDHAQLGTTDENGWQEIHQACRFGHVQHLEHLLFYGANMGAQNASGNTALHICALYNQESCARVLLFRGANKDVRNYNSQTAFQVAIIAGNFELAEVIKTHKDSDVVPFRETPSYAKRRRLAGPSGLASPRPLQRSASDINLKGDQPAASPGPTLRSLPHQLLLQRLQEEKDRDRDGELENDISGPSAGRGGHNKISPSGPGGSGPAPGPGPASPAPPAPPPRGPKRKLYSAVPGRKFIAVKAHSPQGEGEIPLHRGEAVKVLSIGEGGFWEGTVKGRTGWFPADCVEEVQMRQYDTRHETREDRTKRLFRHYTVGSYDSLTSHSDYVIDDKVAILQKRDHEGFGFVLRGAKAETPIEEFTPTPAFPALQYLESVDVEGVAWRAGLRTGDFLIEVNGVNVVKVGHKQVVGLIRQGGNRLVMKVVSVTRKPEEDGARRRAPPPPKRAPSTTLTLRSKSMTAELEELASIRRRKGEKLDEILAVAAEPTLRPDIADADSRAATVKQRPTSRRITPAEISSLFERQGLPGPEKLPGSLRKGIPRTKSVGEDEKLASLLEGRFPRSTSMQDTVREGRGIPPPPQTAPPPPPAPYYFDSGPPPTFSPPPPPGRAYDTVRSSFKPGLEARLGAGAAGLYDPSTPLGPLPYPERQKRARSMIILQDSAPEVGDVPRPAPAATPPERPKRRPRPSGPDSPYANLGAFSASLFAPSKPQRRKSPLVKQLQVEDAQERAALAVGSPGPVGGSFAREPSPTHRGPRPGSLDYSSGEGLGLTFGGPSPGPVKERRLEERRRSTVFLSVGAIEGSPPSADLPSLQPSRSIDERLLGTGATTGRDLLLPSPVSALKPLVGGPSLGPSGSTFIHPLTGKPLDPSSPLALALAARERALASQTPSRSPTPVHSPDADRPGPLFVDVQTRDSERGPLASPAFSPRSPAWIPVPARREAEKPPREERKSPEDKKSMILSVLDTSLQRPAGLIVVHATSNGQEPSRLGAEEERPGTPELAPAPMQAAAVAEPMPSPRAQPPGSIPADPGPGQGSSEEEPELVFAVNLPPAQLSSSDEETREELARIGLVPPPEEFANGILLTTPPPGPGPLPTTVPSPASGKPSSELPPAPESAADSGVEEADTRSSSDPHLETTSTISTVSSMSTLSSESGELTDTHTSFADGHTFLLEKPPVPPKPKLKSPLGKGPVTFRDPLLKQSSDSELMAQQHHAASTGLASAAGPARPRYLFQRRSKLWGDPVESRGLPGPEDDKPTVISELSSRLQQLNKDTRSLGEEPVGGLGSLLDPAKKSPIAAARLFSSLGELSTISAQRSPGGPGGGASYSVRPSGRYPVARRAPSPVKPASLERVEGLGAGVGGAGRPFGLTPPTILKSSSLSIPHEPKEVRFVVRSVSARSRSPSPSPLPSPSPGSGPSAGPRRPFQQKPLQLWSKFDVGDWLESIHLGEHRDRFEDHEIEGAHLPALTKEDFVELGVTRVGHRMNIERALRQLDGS
# UniProt Q9Z2H5: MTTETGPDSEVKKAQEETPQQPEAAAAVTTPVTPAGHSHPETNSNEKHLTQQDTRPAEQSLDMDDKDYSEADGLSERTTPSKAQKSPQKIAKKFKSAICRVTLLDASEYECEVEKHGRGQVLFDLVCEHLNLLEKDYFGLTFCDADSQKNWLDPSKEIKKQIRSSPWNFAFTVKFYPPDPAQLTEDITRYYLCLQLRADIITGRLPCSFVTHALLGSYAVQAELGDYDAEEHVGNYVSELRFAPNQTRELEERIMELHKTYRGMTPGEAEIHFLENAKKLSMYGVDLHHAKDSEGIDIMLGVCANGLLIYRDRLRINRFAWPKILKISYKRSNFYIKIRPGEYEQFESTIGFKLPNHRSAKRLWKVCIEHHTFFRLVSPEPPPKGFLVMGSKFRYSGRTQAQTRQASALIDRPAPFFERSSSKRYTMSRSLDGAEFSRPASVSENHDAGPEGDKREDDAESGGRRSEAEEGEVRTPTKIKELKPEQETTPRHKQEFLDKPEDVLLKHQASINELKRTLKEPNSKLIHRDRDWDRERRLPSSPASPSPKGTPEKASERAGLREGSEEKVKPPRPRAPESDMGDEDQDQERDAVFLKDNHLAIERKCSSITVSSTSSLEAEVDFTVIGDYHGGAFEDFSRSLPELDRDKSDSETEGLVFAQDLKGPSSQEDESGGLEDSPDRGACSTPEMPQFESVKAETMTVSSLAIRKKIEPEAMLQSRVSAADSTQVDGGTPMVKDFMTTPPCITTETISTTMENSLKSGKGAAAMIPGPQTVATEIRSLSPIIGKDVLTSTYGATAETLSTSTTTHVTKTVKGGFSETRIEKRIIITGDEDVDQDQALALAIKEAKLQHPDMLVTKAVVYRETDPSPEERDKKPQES
# UniProt Q6P9R2: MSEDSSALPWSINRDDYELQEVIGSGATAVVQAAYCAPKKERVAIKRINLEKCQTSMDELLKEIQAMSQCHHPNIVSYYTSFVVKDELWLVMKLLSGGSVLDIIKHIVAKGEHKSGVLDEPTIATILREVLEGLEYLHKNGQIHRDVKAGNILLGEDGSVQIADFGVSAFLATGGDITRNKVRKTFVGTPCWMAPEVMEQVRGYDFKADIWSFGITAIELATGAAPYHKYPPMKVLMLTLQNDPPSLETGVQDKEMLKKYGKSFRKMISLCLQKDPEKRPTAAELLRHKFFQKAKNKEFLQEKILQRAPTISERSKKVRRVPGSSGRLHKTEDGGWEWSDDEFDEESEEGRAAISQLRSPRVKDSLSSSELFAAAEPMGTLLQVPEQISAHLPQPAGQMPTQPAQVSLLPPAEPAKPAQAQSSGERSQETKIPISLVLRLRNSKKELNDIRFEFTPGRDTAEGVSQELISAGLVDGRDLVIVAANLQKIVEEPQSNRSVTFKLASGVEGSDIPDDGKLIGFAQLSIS
# UniProt Q5SQX6: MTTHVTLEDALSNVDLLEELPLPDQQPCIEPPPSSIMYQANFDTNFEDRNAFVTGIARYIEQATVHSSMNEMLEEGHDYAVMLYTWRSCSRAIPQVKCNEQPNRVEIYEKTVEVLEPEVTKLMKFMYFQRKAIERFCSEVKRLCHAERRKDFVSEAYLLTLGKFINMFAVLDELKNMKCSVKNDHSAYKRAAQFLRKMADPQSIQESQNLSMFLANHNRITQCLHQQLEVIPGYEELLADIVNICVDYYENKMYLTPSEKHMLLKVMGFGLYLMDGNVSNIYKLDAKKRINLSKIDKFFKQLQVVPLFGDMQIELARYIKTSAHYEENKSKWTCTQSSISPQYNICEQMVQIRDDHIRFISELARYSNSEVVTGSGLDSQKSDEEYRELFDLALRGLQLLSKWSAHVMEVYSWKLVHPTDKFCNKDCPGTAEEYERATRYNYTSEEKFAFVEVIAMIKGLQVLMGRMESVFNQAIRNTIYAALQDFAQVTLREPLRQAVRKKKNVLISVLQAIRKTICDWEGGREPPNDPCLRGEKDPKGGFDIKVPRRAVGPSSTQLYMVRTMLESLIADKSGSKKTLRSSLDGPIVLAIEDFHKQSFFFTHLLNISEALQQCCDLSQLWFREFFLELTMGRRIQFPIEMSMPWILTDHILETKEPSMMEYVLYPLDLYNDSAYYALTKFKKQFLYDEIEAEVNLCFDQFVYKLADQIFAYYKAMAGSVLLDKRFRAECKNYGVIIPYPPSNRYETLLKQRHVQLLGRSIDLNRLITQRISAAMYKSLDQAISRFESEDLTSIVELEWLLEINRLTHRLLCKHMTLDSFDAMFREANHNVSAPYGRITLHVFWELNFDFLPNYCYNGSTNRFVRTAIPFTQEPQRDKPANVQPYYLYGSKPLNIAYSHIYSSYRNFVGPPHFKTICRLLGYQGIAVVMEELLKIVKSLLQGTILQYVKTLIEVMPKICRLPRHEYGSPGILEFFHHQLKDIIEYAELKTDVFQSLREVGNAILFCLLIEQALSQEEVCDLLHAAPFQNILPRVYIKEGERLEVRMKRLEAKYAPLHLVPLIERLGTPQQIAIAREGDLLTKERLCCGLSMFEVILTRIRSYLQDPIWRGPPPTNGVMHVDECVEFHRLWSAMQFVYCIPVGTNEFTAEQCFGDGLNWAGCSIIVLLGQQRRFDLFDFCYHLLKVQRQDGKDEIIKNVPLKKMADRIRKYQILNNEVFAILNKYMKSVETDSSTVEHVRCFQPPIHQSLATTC
# UniProt Q3UHJ0: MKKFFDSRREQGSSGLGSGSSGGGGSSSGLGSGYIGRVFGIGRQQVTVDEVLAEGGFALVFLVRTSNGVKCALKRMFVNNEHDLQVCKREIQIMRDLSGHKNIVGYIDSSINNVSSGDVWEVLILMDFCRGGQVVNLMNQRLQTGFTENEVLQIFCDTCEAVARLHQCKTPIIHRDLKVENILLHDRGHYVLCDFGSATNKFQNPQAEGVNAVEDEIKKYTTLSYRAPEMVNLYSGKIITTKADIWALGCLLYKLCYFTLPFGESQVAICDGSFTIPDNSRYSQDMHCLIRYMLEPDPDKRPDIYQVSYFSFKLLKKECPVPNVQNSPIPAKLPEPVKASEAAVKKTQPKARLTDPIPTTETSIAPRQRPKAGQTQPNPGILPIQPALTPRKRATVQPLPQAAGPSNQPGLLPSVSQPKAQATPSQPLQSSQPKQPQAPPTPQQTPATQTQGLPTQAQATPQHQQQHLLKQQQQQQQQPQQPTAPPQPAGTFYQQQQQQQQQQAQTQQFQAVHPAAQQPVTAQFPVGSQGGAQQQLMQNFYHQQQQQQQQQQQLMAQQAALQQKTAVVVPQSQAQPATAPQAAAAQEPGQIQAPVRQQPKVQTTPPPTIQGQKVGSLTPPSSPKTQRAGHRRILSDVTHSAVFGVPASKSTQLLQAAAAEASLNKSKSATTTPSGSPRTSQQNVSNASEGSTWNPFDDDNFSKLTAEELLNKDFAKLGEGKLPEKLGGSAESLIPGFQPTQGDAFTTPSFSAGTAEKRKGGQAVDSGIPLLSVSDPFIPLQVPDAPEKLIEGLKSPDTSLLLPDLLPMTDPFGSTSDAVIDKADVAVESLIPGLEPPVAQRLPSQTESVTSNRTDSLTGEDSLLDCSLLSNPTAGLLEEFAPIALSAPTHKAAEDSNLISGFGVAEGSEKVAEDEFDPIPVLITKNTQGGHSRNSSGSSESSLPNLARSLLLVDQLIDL
# UniProt O55143: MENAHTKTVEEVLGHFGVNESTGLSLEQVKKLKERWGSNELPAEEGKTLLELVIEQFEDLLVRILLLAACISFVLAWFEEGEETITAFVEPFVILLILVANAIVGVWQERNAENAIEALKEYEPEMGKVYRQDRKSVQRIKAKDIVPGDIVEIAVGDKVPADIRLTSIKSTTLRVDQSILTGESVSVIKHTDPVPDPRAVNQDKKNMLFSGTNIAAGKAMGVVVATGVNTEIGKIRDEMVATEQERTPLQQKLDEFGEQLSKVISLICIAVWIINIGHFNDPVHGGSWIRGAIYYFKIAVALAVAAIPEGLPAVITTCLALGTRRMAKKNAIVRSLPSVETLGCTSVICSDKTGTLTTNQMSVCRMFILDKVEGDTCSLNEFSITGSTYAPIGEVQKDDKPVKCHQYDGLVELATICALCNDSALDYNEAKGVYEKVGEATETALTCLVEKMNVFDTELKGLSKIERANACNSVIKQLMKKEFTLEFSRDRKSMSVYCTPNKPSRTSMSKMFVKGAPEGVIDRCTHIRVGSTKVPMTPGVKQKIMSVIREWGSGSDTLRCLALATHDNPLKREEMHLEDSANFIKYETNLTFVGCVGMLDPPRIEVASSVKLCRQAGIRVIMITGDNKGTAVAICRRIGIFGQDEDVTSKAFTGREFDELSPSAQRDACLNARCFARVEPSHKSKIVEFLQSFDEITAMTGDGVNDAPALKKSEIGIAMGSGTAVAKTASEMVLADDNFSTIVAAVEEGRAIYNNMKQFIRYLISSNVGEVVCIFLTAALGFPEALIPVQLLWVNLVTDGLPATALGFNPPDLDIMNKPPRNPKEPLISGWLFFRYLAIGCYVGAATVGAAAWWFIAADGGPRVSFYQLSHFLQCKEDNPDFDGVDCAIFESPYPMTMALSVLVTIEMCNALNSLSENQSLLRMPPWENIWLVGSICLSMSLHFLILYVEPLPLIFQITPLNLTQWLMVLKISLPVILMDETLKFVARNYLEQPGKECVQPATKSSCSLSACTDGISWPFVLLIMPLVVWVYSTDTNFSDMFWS
# UniProt P60879: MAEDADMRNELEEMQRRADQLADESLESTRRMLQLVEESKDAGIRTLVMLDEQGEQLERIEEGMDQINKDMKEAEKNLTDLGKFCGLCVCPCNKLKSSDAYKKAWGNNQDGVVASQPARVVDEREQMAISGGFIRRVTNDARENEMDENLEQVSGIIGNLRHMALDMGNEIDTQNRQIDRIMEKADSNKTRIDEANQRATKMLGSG
# These are yes or no findings as the source states them, for the method shown. Binding seen in cells or lysates may run through a third protein. These calls come from enrichment with a bait or labelling near it, and not all partners need be listed. A no says only that the protein was not detected with the bait.
# T1: K+/Cl- co-transporter KCC2 (mouse (endogenous in mouse forebrain)) (UniProt Q91V14)
# T1 sequence: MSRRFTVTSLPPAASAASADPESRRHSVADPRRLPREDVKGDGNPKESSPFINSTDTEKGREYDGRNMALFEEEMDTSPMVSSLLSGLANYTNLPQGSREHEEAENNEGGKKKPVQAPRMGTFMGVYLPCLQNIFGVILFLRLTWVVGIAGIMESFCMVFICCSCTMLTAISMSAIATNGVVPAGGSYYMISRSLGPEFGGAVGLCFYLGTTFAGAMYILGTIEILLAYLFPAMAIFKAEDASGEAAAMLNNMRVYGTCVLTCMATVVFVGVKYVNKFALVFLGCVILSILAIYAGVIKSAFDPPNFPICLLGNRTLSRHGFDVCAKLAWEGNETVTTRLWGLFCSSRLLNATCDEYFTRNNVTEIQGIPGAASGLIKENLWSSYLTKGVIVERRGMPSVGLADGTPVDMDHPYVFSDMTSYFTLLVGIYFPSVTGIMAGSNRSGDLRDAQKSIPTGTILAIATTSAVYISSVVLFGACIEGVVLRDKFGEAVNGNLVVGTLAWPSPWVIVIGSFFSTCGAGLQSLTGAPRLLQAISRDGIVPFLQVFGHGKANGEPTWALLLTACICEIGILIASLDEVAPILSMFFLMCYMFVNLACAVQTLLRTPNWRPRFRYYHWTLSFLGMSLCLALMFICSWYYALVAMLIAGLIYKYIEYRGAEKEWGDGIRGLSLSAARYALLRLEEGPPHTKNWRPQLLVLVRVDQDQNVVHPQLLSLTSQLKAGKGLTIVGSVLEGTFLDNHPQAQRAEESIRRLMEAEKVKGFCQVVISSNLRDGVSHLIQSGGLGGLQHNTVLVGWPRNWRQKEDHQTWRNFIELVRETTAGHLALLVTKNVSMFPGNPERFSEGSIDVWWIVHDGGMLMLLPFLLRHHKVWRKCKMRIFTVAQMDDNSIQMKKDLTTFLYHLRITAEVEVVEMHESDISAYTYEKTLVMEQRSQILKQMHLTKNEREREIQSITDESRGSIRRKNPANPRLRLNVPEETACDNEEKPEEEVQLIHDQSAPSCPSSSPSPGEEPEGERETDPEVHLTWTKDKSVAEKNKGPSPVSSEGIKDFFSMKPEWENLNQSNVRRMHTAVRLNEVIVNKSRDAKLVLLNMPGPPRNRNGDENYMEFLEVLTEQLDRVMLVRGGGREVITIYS
# Molecular target: T1, K+/Cl- co-transporter KCC2 (mouse (endogenous in mouse forebrain))
# Experiment: affinity purification with mass spectrometry
row,binding,Molecule
1,no binding,WNK (mouse (endogenous in mouse forebrain)) (enzyme)
2,binds,GRM2 (from UniProt Q14BI2 19-872) (receptor)
3,no binding,PKC (mouse (endogenous in mouse forebrain)) (enzyme)
4,binds,NLGN3 (from UniProt Q8BYM5 35-825)
5,binds,SHANK3 (from UniProt Q4ACU6 1-1730)
6,binds,GRM3 (from UniProt Q9QYS2 23-879) (receptor)
7,no binding,EPB41L1 (from UniProt Q9Z2H5 1-879)
8,no binding,OSR (from UniProt Q6P9R2 1-527) (enzyme)
9,binds,DLG1 (from UniProt Q811D0 1-905)
10,binds,ANK2 (from UniProt Q8C8R3 1-3898)
11,binds,SPTBN1 (from UniProt Q62261 1-2363)
12,binds,CYFIP2 (from UniProt Q5SQX6 1-1253)
13,binds,AAK1 (from UniProt Q3UHJ0 1-959)
14,binds,ITPR1 (from UniProt P11881 1-2749)
15,binds,CACNA1E (from UniProt Q61290 1-2272)
16,binds,ATP2A2 (from UniProt O55143 1-1044)
17,binds,SPTAN1 (from UniProt P16546 1-2472)
18,binds,SNAP25 (from UniProt P60879 1-206)
19,binds,CYFIP1 (from UniProt Q7TMB8 1-1253)
20,binds,"gephyrin (protein, UniProt Q8BUV3 1-769) MATEGMILTNHDHQIRVGVLTVSDSCFRNLAEDRSGINLKDLVQDPSLLGGTISAYKIVPDEIEEIKETLIDWCDEKELNLILTTGGTGFAPRDVTPEATKEVIEREAPGMALAMLMGSLNVTPLGMLSRPVCGIRGKTLIINLPGSKKGSQECFQFILPALPHAIDLLRDAIVKVKEVHDELEDLPSPPPPLSPPPTTSPHKQTEDKGVQCEEEEEEKKDSGVASTEDSSSSHITAAALAAKIPDSIISRGVQVLPRDTASLSTTPSESPRAQATSRLSTASCPTPKQIRRPDESKGVASRVGSLKARLPSCSSTYSVSEVQSRCSSKENILRASHSAVDITKVARRHRMSPFPLTSMDKAFITVLEMTPVLGTEIINYRDGMGRVLAQDVYAKDNLPPFPASVKDGYAVRAADGPGDRFIIGESQAGEQPTQTVMPGQVMRVTTGAPIPCGADAVVQVEDTELIRESDDGTEELEVRILVQARPGQDIRPIGHDIKRGECVLAKGTHMGPSEIGLLATVGVTEVEVNKFPVVAVMSTGNELLNPEDDLLPGKIRDSNRSTLLATIQEHGYPTINLGIVGDNPDDLLNALNEGISRADVIITSGGVSMGEKDYLKQVLDIDLHAQIHFGRVFMKPGLPTTFATLDIDGVRKIIFALPGNPVSAVVTCNLFVVPALRKMQGILDPRPTIIKARLSCDVKLDPRPEYHRCILTWHHQEPLPWAQSTGNQMSSRLMSMRSANGLLMLPPKTEQYVELHKGEVVDVMVIGRL"
21,binds,"GABBR2 (receptor, UniProt Q80T41 41-940) WARGAPRPPPSSPPLSIMGLMPLTKEVAKGSIGRGVLPAVELAIEQIRNESLLRPYFLDLRLYDTECDNAKGLKAFYDAIKYGPNHLMVFGGVCPSVTSIIAESLQGWNLVQLSFAATTPVLADKKKYPYFFRTVPSDNAVNPAILKLLKHFRWRRVGTLTQDVQRFSEVRNDLTGVLYGEDIEISDTESFSNDPCTSVKKLKGNDVRIILGQFDQNMAAKVFCCAFEESMFGSKYQWIIPGWYEPAWWEQVHVEANSSRCLRRSLLAAMEGYIGVDFEPLSSKQIKTISGKTPQQYEREYNSKRSGVGPSKFHGYAYDGIWVIAKTLQRAMETLHASSRHQRIQDFNYTDHTLGRIILNAMNETNFFGVTGQVVFRNGERMGTIKFTQFQDSREVKVGEYNAVADTLEIINDTIRFQGSEPPKDKTIILEQLRKISLPLYSILSALTILGMIMASAFLFFNIKNRNQKLIKMSSPYMNNLIILGGMLSYASIFLFGLDGSFVSEKTFETLCTVRTWILTVGYTTAFGAMFAKTWRVHAIFKNVKMKKKIIKDQKLLVIVGGMLLIDLCILICWQAVDPLRRTVERYSMEPDPAGRDISIRPLLEHCENTHMTIWLGIVYAYKGLLMLFGCFLAWETRNVSIPALNDSKYIGMSVYNVGIMCIIGAAVSFLTRDQPNVQFCIVALVIIFCSTITLCLVFVPKLITLRTNPDAATQNRRFQFTQNQKKEDSKTSTSVTSVNQASTSRLEGLQSENHRLRMKITELDKDLEEVTMQLQDTPEKTTYIKQNHYQELNDILSLGNFTESTDGGKAILKNHLDQNPQLQWNTTEPSRTCKDPIEDINSPEHIQRRLSLQLPILHHAYLPSIGGVDASCVSPCVSPTASPRHRHVPPSFRVMVSGL"
22,binds,"KCC1 (protein, UniProt Q9JIS8 1-1085) MPHFTVVPVDGPRRGDYDNLEGLSWVDYGERAEREDSDGQGNHRENSPFLCPLDASRGNDYYDRNLALFEEELDIRPKVSSLLGKLVSYTNLTQGAKEHEEAESGEGGRRRAAKAPSMGTLMGVYLPCLQNIFGVILFLRLTWMVGTAGVLQALLIVLICCCCTLLTAISMSAIATNGVVPAGGSYFMISRSLGPEFGGAVGLCFYLGTTFAAAMYILGAIEILLTYIAPPAAIFYPSGTHDMSSATLNNMRVYGTIFLTLMTLVVFVGVKYVNKFASLFLACVIISILSIYAGGIKSIFDPPVFPVCMLGNRTLSRDQFDICAKTVVVDNETVATRLWTFFCHSPNLTADSCDPYFLLNNVTEIPGIPGAAAGVLQENLWSAYLEKGEVVEKHGLPSTDTLGLKESLSLYVVADIATSFTVLVGIFFPSVTGIMAGSNRSGDLRDAQKSIPVGTILAIVTTSLVYFSSVILFGACIEGVVLRDKYGDGVSRNLVVGTLAWPSPWVIVVGSFFSTCGAGLQSLTGAPRLLQAIAKDNIIPFLRVFGHGKANGEPTWALLLTALIAELGILIASLDMVAPILSMFFLMCYLFVNLACAVQTLLRTPNWRPRFKYYHWTLSFLGMSLCLALMFVSSWYYALVAMLIAGMIYKYIEYQGAEKEWGDGIRGLSLSAARYALLRLEEGPPHTKNWRPQLLVLLKLDEDLHVKYPRLLTFASQLKAGKGLTIVGSVIQGSFLESYGEAQAAEQTIKNMMDIEKVKGFCQVVVASKVREGLAHLIQSCGLGGMRHNSVVLGWPYGWRQSEDPRAWKTFIDTVRCTTAAHLALLVPKNIAFYPSNHERYLDGHIDVWWIVHDGGMLMLLPFLLRQHKVWKKCRMRIFTVAQMDDNSIQMKKDLAIFLYHLRLEAEVEVVEMHNSDISAYTYERTLMMEQRSQMLRQMRLTKTERDREAQLVKDRHSALRLESLYSDEEEESVAGADKIQMTWTRDKYMAEPWDPSHAPDNFRELVHIKPDQSNVRRMHTAVKLNEVIVTRSHDARLVLLNMPGPPKNSEGDENYMEFLEVLTEGLERVLLVRGGGREVITIYS"
23,binds,"NCKAP1 (protein, UniProt P28660 1-1128) MSRSVLQPSQQKLAEKLTILNDRGVGMLTRLYNIKKACGDPKAKPSYLIDKNLESAVKFIVRKFPAVETRNNNQQLAQLQKEKSEILKNLALYYFTFVDVMEFKDHVCDLLNTIDVCQVFFDITVNFDLTKNYLDLTVTYTTLMILLSRIEERKAIIGLYNYAHEMTHGASDREYPRLGQMIVDYENPLKKMMEEFVPHSKSLSDALISLQMVYPRRNLSADQWRNAQLLSLISAPSTMLNPAQSDTMPCEYLSLDAMEKWIIFGFILCHGMLNTEATALNLWKLALQSSSCLSLFRDEVFHIHKAAEDLFVNIRGYNKRINDIRECKEAAVSHAGSMHRERRKFLRSALKELATVLSDQPGLLGPKALFVFMALSFARDEIIWLLRHADNMPKKSADDFIDKHIAELIFYMEELRAHVRKYGPVMQRYYVQYLSGFDAVVLNELVQNLSVCPEDESIIMSSFVNTMTSLSVKQVEDGEVFDFRGMRLDWFRLQAYTSVSKASLSLADHRELGKMMNTIIFHTKMVDSLVEMLVETSDLSIFCFYSRAFEKMFQQCLELPSQSRYSIAFPLLCTHFMSCTHELCPEERHHIGDRSLSLCNMFLDEMAKQARNLITDICTEQCTLSDQLLPKHCAKTISQAVNKKSKKQTGKKGEPEREKPGVESMRKNRLVVTNLDKLHTALSELCFSINYVPNMAVWEHTFTPREYLTSHLEIRFTKSIVGMTMYNQATQEIAKPSELLTSVRAYMTVLQSIENYVQIDITRVFNNVLLQQTQHLDSHGEPTITSLYTNWYLETLLRQVSNGHIAYFPAMKAFVNLPTENELTFNAEEYSDISEMRSLSELLGPYGMKFLSESLMWHISSQVAELKKLVVENVDVLTQMRTSFDKPDQMAALFKRLSSVDSVLKRMTIIGVILSFRSLAQEALRDVLSYHIPFLVSSIEDFKDHIPRETDMKVAMNVYELSSAAGLPCEIDPALVVALSSQKSENISPEEEYKIACLLMVFVAVSLPTLASNVMSQYSPAIEGHCNNIHCLAKAINQIAAALFTIHKGSIEDRLKEFLALASSSLLKIGQETDKTTTRNRESVYLLLDMIVQESPFLTMDLLESCFPYVLLRNAYHAVYKQSVTSSA"
